Chains of the proteins cited; added tags and fusions are not shown. Lines headed by an entry give the natural chain unless they say otherwise; changes in a name come on top.
UniProt O94782: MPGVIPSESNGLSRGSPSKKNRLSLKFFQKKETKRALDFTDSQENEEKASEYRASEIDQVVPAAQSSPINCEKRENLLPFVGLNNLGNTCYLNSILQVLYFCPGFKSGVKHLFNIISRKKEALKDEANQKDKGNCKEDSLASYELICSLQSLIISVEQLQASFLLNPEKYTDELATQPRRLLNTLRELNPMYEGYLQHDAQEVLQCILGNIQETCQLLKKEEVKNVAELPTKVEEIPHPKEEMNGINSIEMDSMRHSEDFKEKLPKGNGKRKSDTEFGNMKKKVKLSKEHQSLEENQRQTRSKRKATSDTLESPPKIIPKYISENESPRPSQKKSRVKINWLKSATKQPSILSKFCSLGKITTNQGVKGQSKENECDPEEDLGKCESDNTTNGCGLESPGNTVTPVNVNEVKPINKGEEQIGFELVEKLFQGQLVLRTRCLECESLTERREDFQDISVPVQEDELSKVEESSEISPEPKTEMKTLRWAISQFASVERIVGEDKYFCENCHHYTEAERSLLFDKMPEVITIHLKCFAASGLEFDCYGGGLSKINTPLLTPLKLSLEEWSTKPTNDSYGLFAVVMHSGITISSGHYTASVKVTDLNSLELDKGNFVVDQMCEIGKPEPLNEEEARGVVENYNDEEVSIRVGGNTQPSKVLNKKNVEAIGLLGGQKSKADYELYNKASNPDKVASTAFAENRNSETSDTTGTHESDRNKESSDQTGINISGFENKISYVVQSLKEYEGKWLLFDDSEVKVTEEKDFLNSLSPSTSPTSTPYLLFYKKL

Inconclusive means that the source gave no clear call. Such entries were picked first, then a sample of the others. A potency beside an inconclusive call is a rough fit, not a confirmed value. The source made the active and inactive calls. The call rests on the fitted dose curve; in most records, active means well fitted inhibition curve with a large enough effect; inconclusive means small, poorly fitted or top-dose-only effect; inactive means flat fitted curve, though single readings scatter.
These molecules were tested against Ubiquitin carboxyl-terminal hydrolase 1 (Homo sapiens) (UniProt O94782) (assay: Inhibitors of USP1/UAF1: SAR in Primary Assay). Details: Recombinant USP1/UAF1, Ub-Rhodamine cleavage fluorescence; series mostly up to 57.1 µM; activity change, negative = inhibition: at the top concentration.
From the text: Deubiquitinating enzymes (DUBs) are a class of enzymes that can cleave isopeptide bond formed between the C-terminal carboxylate of ubiquitin and a lysine side-chain amino group on the target protein. Among them, ubiquitin specific proteases (USPs) constitute the largest DUB family. Human USPs are emerging as promising targets for pharmacological intervention because of their connection to a number of human diseases, including prostate, colon and breast cancer (1, 2), pediatric acute lymphoblastic leukemia (3), and familial cylindromatosis (4). The advantage of inhibiting USPs lies in the potential specificity of therapeutic intervention that can lead to better efficacy and reduce nonspecific side effects. In a collaboration between the University of Delaware and the NIH Chemical Genomics Center, a high-throughput screen assay was developed to screen for USP1/UAF1 inhibitors (5). This assay was used to test the analogs that were synthesized based on SAR around the original hit. NIH Chemical Genomics Center [NCGC] NIH Molecular Libraries Probe Centers Network [MLPCN] MLPCN Grant: DA030552-01 Assay Submitter (PI): Zhihao Zhuang, University of Delaware 1. Priolo, C., et al. (2006) The isopeptidase USP2a protects human prostate cancer from apoptosis. Cancer Res 66, 8625-8632 2. Popov, N., et al. (2007) The ubiquitin-specific protease USP28 is required for MYC stability. Nat Cell Biol 9, 765-774 3. De Pitta, C., et al. (2005) A leukemia-enriched cDNA microarray platform identifies new transcripts with relevance to the biology of pediatric acute lymphoblastic leukemia. Haematologica 90, 890-898 4. Kovalenko, A., et al. (2003) The tumour suppressor CYLD negatively regulates NF-kappaB signalling by deubiquitination. Nature 424, 801-805 5. Chen, J., et al. (2011) Selective and cell-active inhibitors of the USP1/ UAF1 deubiquitinase complex reverse cisplatin resistance in non-small cell lung cancer cells. Chem Bio 18(11):1390-400.
3 microliters of reagents (buffer in columns 3 and 4 as negative control and 1nM USP1/UAF1 complex in columns 1, 2, and 5-48) are dispensed into Greiner black solid bottom 1536-well assay plates. Compounds are then transferred via Kalypsys pin tool equipped with 1536-pin array (10nl slotted pins, V&P Scientific, San Diego, CA). Following an incubation step of 15 min at room temperature, 1ul of Ub-Rho substrate (150nM final concentration) is added to initiate the reaction. The plates are immediately centrifuged at 1000 rpm for 15 seconds, and subsequently transferred to a ViewLux high-throughput CCD imager (PerkinElmer) wherein kinetic measurements of fluorescence are acquired using 480 nm excitation/540 nm emission filter set (6 reads every 60 seconds, see Table 1). All reagents are diluted in an assay buffer consisting of 50mM HEPES (pH 7.8), 0.5mM EDTA, 0.1 mg/ml BSA, 1mM TCEP, and 0.01% Tween-20.
In the case of Nc1nc(NCc2ccc(-c3cccnc3)cc2)c2ccccc2n1, the “activity change, negative = inhibition” value was inactive: -16.9%.
In the case of FC(F)(F)c1cc(-c2ccc(CNc3nc(-c4ccccc4C(F)(F)F)nc4ccccc34)cc2)cc(C(F)(F)F)c1, the Potency was inconclusive: 10.8 µM [inhibitor, full curve, poor fit].
For Cc1cnc(-c2ccccc2C(C)C)nc1NCc1ccc(-c2nn[nH]n2)cc1, the Potency was active: 3.83 µM.
CC(C)c1ccccc1-c1nccc(NCc2ccc(-c3cccnc3)cc2)n1 was tested, and the Potency was active: 0.121 µM.
FC(F)(F)c1cccc(-c2nc(NCc3ccc(-c4ccnc(C(F)(F)F)c4)cc3)c3ccccc3n2)c1 was tested, and the “activity change, negative = inhibition” value was inactive: -0.42%.
With FC(F)(F)c1cccc(Nc2ccc(CNc3nc(-c4ccccc4C(F)(F)F)nc4ccccc34)cc2)c1 the Potency was inconclusive: 19.2 µM [inhibitor, partial curve].
In the case of FC(F)(F)c1ccc(-c2nc(NCc3ccc(-c4cccnc4)cc3)c3ccccc3n2)cc1, the Potency was inconclusive: 24.1 µM [inhibitor, partial curve].
CC(C)(Nc1nc(-c2ccccc2C(F)(F)F)nc2ccccc12)c1ccc(-c2cccc(C(F)(F)F)c2)cc1 was tested, and the Potency was inconclusive: 6.07 µM [inhibitor, full curve].
FC(F)(F)c1ccccc1-c1cccc(NCc2ccc(-c3cccnc3)cc2)c1 was tested, and the Potency was inconclusive: 17.1 µM [inhibitor, partial curve, poor fit].
With Cc1ccc(-c2ccc(CNc3nc(-c4ccccc4C(C)C)nc4ccccc34)cc2)cn1 the Potency was active: 0.136 µM.
Cc1cccc(C(CO)Nc2nc(-c3ccccc3C(C)C)ncc2C)c1 (stereo not given) was tested, and the Potency was active: 1.08 µM.
FC(F)(F)c1ccccc1-c1cc2ccccc2c(NCc2ccc(-c3cccnc3)cc2)n1 was tested, and the Potency was inconclusive: 27.1 µM [inhibitor, partial curve, poor fit].
With CN(C)S(=O)(=O)c1ccc(-c2nc(NCc3ccc(-c4ccnc(C(F)(F)F)c4)cc3)c3ccccc3n2)cc1 the Potency was inconclusive: 27.1 µM [inhibitor, partial curve].
For CC(Nc1nc(-c2ccccc2C(F)(F)F)nc2ccccc12)c1ccc(-c2cccc(C(F)(F)F)c2)cc1 (stereo not given), the Potency was inconclusive: 6.81 µM [inhibitor, full curve].
With Cc1cnc(-c2ccccc2C2COC2)nc1NCc1ccc(-n2ccnn2)cc1 the “activity change, negative = inhibition” value was inactive: -9.72%.
In the case of c1cncc(-c2ccc(CNc3nc(N4CCCC4)nc4ccccc34)cc2)c1, the Potency was inconclusive: 27.1 µM [inhibitor, partial curve].
In the case of FC(F)(F)c1cc(Cl)cc(-c2ccc(CNc3nc(-c4ccccc4C(F)(F)F)nc4ccccc34)cc2)c1, the Potency was inconclusive: 2.15 µM [inhibitor, full curve].
With Cc1cnc(-c2ccccc2C2CC2)nc1NCc1ccc(-c2cccnc2)cc1 the Potency was active: 0.341 µM.
With c1cncc(-c2ccc(CNc3nc(C4CCCC4)nc4ccccc34)cc2)c1 the Potency was inconclusive: 17.1 µM [inhibitor, partial curve].
For Cc1cnc(-c2ccccc2C2COC2)nc1NCC1CCN(c2cccnc2)CC1, the “activity change, negative = inhibition” value was inactive: -6.08%.
In the case of FC(F)(F)c1cc(-c2ccc(CNc3nc(-c4ccccc4C(F)(F)F)nc4ccccc34)cc2)ccc1Cl, the Potency was inconclusive: 5.41 µM [inhibitor, full curve].
With Cc1nc(NCc2ccc(-c3ccnc(C(F)(F)F)c3)cc2)c2ccccc2n1 the Potency was inconclusive: 34.1 µM [inhibitor, partial curve, poor fit].
With O=S(=O)(Nc1nc(-c2ccccc2C(F)(F)F)nc2ccccc12)c1ccc(Br)cc1 the Potency was inconclusive: 30.4 µM [inhibitor, partial curve].
For CC(C)c1ccccc1-c1nc2c(c(NCc3ccc(-c4cccnc4)cc3)n1)CCNC2, the Potency was active: 0.482 µM.
Cc1cnc(-c2ccccc2C(F)F)nc1NCC1CN(c2cnccn2)C1 was tested, and the Potency was inconclusive: 24.1 µM [inhibitor, partial curve].
For c1cncc(-c2ccc(CNc3nc(N4CCOCC4)nc4ccccc34)cc2)c1, the “activity change, negative = inhibition” value was inactive: -18.2%.
Cc1cnc(-c2ccccc2N(C)C)nc1NCc1ccc(-c2cccnc2)cc1 was tested, and the Potency was active: 0.429 µM.
For Cc1nc(NCc2ccc(-c3cccnc3)cc2)c2ccccc2n1, the “activity change, negative = inhibition” value was inactive: -15.4%.
For CN(CC(F)(F)F)c1nc(NCc2ccc(-c3cccnc3)cc2)c2ccccc2n1, the Potency was inconclusive: 19.2 µM [inhibitor, partial curve].
With CS(=O)(=O)Nc1ccc(-c2nc(NCc3ccc(-c4ccnc(C(F)(F)F)c4)cc3)c3ccccc3n2)cc1 the Potency was inconclusive: 30.4 µM [inhibitor, partial curve, poor fit].
With Nc1nc(NCc2ccc(-c3ccnc(C(F)(F)F)c3)cc2)c2ccccc2n1 the Potency was inconclusive: 27.1 µM [inhibitor, partial curve].
In the case of Fc1ccc(-c2ccc(CNc3nc(-c4ccccc4C(F)(F)F)nc4ccccc34)cc2)cc1C(F)(F)F, the Potency was inconclusive: 6.07 µM [inhibitor, partial curve].
N#Cc1ccc(-c2nc(NCc3ccc(-c4ccnc(C(F)(F)F)c4)cc3)c3ccccc3n2)cc1 was tested, and the “activity change, negative = inhibition” value was inactive: -19.2%.
For O=S(=O)(Nc1nc(-c2ccccc2C(F)(F)F)nc2ccccc12)c1ccc(-c2ccnc(C(F)(F)F)c2)cc1, the Potency was inconclusive: 24.1 µM [inhibitor, partial curve].
For c1cncc(-c2ccc(CNc3nc(-n4ccnc4)nc4ccccc34)cc2)c1, the Potency was inconclusive: 27.1 µM [inhibitor, partial curve].
Cc1cnc(-c2ccccc2C(C)C)nc1NCc1ccc(C#N)cc1 was tested, and the Potency was active: 0.482 µM.
With N#Cc1c(-c2ccccc2C(F)(F)F)nc2ccccc2c1NCc1ccc(-c2ccnc(C(F)(F)F)c2)cc1 the Potency was inconclusive: 6.07 µM [inhibitor, full curve].
FC(F)(F)c1ccc(-c2nc(NCc3ccc(-c4ccnc(C(F)(F)F)c4)cc3)c3ccccc3n2)cc1 was tested, and the “activity change, negative = inhibition” value was inactive: -12.9%.
For CC(=O)c1ccccc1-c1ncc(C)c(NCC2CCN(c3cccnc3)CC2)n1, the Potency was inconclusive: 21.5 µM [inhibitor, partial curve].
With Cc1cnc(-c2ccccc2C(C)C)nc1NCC1CCN(C)CC1 the Potency was inconclusive: 30.4 µM [inhibitor, partial curve].

Reference: PubChem BioAssay AID651605 (National Center for Advancing Translational Sciences (NCATS), 2012)
